Test results from PMC6015020.
These are yes or no findings as the source states them, for the method shown. In cells and extracts the contact can be indirect.

Amino acid sequences for entries named in this document (tags omitted). A change or cut given only in a name is not applied to a line headed by its entry.
UniProt Q9H307: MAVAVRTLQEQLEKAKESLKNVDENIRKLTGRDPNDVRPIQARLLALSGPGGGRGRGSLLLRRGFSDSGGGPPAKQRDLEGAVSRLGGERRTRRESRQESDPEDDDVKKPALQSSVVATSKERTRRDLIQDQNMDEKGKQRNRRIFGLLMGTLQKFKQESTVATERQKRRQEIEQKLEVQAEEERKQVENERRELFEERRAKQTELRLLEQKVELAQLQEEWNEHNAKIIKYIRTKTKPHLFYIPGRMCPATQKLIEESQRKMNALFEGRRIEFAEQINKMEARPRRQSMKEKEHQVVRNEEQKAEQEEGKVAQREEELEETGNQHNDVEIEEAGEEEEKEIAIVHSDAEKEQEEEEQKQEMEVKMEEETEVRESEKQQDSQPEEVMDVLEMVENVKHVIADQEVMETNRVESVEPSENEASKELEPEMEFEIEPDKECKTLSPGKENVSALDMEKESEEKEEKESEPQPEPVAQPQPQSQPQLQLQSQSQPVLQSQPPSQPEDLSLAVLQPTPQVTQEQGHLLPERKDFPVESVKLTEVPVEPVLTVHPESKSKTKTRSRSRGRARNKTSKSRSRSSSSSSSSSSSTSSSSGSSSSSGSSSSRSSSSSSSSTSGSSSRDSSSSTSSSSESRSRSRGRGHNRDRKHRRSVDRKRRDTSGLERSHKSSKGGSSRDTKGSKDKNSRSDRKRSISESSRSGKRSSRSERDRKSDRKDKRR

Molecular target: FLAG-PININ-Mut (RSB domain deleted) (UniProt Q9H307)
Assay: co-IP; HeLa cells transfected with FLAG-tagged PININ, 48 h; lysis in PXL buffer, RNase A and Turbo DNase 10 min 37 °C; anti-FLAG beads 2 h; washes with 150 mM NaCl, 1% NP-40; western blot

binding: no binding
B1: SAP18 (endogenous, HeLa) (protein, UniProt O00422 1-153)
chain: MAVESRVTQEEIKKEPEKPIDREKTCPLLLRVFTTNNGRHHRMDEFSRGNVPSSELQIYTWMDATLKELTSLVKEVYPEARKKGTHFNFAIVFTDVKRPGYRVKEIGSTMSGRKGTDDSMTLQSQKFQIGDYLDIAITPPNRAPPPSGRMRPY
